Experimental data as given in publication PMC5428976.
These are yes or no findings as the source states them, for the method shown. Binding seen in cells or lysates may run through a third protein. A result given as binding can be weak or reduced; the word gives no strength.

Sequences of proteins named here, by UniProt entry; tags and fusion partners are left off. A change or cut given only in a name is not applied to a line headed by its entry.
UniProt Q8TEB1: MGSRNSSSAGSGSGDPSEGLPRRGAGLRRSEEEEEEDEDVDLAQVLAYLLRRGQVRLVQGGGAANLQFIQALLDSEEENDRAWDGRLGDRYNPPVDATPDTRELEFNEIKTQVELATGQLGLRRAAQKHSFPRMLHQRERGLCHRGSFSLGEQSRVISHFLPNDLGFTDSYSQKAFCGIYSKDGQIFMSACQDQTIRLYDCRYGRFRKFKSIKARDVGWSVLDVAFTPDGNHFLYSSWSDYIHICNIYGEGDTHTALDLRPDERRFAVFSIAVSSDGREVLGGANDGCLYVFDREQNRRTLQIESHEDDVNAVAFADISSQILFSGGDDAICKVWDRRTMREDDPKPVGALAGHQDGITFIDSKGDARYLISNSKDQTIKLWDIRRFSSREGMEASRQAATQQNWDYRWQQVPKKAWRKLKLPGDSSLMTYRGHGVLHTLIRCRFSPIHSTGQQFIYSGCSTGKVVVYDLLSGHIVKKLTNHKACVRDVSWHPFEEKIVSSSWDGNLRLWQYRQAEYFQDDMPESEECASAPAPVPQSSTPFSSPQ
UniProt Q16236: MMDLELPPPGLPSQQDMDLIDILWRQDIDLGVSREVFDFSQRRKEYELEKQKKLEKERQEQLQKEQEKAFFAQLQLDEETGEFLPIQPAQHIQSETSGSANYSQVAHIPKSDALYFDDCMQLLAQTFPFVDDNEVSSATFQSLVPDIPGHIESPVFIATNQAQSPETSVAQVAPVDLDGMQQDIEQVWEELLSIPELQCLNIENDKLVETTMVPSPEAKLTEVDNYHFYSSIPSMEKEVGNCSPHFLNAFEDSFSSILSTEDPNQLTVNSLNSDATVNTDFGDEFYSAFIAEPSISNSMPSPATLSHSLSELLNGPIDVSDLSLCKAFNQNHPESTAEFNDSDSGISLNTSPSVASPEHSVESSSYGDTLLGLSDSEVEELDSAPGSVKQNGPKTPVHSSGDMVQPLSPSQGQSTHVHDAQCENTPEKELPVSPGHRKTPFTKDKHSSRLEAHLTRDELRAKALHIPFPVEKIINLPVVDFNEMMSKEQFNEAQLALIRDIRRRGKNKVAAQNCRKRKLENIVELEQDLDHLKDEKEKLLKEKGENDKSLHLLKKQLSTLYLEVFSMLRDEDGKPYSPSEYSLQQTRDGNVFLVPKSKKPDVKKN
UniProt Q13619: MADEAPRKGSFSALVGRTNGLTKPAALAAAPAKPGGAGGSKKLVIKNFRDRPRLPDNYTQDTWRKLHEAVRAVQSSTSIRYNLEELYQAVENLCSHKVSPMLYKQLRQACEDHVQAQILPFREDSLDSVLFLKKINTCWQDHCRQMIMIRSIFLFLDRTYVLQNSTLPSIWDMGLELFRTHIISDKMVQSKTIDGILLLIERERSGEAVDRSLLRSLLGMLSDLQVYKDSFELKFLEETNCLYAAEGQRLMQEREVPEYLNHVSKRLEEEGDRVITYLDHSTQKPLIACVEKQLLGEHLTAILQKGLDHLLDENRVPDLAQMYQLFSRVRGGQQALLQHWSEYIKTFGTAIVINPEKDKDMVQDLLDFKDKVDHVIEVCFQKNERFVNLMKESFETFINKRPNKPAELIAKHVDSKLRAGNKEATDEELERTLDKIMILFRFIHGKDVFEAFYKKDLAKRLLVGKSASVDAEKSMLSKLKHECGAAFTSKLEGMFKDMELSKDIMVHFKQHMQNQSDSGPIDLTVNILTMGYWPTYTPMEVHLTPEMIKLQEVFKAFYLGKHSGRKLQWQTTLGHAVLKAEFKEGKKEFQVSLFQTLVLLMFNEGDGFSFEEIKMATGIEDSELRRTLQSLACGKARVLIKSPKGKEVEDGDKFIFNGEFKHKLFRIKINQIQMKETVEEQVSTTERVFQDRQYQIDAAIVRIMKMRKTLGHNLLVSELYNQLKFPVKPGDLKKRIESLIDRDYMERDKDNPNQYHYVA
UniProt Q16531: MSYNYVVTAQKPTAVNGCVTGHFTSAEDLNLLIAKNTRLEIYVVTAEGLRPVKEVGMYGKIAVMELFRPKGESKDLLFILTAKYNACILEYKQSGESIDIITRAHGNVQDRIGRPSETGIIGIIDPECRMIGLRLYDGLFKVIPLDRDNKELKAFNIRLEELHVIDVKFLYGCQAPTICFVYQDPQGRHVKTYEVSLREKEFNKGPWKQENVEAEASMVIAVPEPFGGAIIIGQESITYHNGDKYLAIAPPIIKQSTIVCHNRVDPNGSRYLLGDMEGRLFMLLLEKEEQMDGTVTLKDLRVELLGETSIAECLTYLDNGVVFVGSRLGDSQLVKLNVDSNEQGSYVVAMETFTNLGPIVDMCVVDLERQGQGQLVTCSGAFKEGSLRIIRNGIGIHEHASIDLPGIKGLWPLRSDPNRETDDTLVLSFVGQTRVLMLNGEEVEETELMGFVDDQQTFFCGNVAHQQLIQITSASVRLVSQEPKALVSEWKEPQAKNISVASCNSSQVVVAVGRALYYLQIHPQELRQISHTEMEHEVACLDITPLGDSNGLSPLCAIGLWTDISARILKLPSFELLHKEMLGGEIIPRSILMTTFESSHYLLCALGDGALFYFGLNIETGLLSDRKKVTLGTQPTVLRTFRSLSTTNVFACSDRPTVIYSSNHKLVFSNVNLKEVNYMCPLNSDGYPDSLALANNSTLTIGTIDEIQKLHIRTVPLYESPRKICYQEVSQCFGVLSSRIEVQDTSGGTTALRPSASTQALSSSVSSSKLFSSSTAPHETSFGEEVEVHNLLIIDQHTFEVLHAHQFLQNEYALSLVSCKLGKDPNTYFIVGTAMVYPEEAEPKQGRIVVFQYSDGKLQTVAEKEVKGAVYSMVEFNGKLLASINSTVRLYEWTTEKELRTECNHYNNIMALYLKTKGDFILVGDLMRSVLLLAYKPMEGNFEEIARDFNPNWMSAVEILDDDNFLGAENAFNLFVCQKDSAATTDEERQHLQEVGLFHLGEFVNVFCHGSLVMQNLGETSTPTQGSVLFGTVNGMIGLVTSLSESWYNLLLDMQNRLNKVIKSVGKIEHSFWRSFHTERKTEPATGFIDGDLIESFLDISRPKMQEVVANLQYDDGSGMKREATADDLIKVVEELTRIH
UniProt Q14145: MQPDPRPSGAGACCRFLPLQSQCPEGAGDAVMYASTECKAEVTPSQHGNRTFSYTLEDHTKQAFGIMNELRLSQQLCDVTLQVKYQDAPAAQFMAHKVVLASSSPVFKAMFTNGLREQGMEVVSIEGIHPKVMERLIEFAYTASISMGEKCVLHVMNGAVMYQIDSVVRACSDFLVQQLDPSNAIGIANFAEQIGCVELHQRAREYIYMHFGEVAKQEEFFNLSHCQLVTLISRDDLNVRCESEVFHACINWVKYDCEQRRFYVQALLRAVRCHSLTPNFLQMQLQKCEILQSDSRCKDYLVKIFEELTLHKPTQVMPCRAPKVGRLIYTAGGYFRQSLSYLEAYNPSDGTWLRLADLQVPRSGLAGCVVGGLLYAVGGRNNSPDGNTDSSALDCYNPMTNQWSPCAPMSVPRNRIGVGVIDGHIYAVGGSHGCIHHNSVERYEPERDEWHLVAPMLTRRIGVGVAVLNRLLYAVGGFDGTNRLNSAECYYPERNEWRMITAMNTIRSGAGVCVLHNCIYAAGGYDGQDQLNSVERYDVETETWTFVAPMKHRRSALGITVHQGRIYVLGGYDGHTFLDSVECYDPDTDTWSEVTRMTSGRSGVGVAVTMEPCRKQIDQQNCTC

Assays:
Assay in all cases: co-IP; HEK-293T cells transiently transfected, 24 h, no MG-132; lysed in 0.5% CHAPS buffer (10mM Tris/Cl pH 7.5, 150mM NaCl, 0.5mM EDTA); GFP:WDR23 (or GFP) precipitated with magnetic agarose GFP Trap beads, 1 hour at 4°C, three washes; Western blot; some cells treated with 250μM H2O2
[1] = molecular target: GFP:WDR23 isoform 2 (human) (UniProt Q8TEB1)
[2] = molecular target: GFP:WDR23 isoform 1 (human) (UniProt Q8TEB1)
[3] = molecular target: GFP:WDR23 isoform 2 (H306Y) (human) (UniProt Q8TEB1)

Row | binding [1] | binding [2] | binding [3] | Substance
1 | binds | binds |  | NRF2ΔNeh3 (from UniProt Q16236)
2 | binds | binds |  | NRF2ΔNeh4,5 (from UniProt Q16236)
3 | binds | binds | binds | CUL4A (from UniProt Q13619 1-759)
4 | binds | binds | binds | DDB1 (from UniProt Q16531 1-1140)
5 | no binding | no binding |  | KEAP1 (from UniProt Q14145 1-624)
6 | binds | binds |  | NRF2ΔNeh1 (from UniProt Q16236)
7 | no binding | no binding |  | NRF2(ΔNeh2) (from UniProt Q16236)
8 | binds | binds |  | NRF2ΔNeh6 (from UniProt Q16236)
